Assay results: ChEMBL document CHEMBL4296183, “CO-ADD screening of NIH NCI Natural Product Set III” (2020)
Some of the results follow. Potency and affinity values are given separately.

These compounds were tested on Pseudomonas aeruginosa. Conditions: Concentration 20 uM; ASSAY_TEST Inhibition of Bacterial Growth; detection method Absorption (OD600); MEDIA CAMHB; plate type 384well; NBS; CORNING #3640; time 18 hr.

Compound	Inhibition [%]
COc1c2occc2c(OC)c2c(=O)cc(C)oc12 [KHELLIN]	13.85
CC1CC(O)C2C3(C)CCCC2(COC3=O)C12CCC1(CCOC1=O)O2 (stereo not given)	4.63
COc1ccc(C2CC(=O)c3c(O)cc(OC4OC(CO)C(O)C(O)C4OC4OC(C)C(O)C(O)C4O)cc3O2)cc1O (stereo not given)	9.41
CC(=O)O.COc1ccc2c(=O)oc3c(OC)cc(CCN(C)C)c4c(=O)oc1c2c34	10.84
CC1(C)CCCC2(C)C3=C(CCC12)C(=O)OC3 (stereo not given)	10.4
COC(=O)[C@]1(C)CCC[C@]2(C)C3=CC(=O)[C@@]4(C(C)C)O[C@H]4[C@]3(O)CC[C@@H]12	13.48
CCC1NC(=O)C(NC(=O)c2ncccc2O)C(C)OC(=O)C(c2ccccc2)NC(=O)C2CC(=O)CCN2C(=O)C(Cc2ccccc2)N(C)C(=O)C2CCCN2C1=O (stereo not given)	3.82
CCCCCC[C@H]([C@H](C)O)n1cnc2c(N)ncnc21.Cl	10.53
COc1c2occc2cc2ccc(=O)oc12 [METHOXSALEN]	12.61
CCCCCCCCCCCCCCCCCCOCC(O)CO (stereo not given) [BATILOL]	3.22
COC(=O)NC1C(C)OC(OC2C/C=C(/C)C3C=CC4C(OC5CC(OC6CCC(OC7CC(O)C(OC8CCC(O)C(C)O8)C(C)O7)C(C)O6)C(OC(C)=O)C(C)O5)C(C)CC(C)C4C3(C)/C(O)=C3/C(=O)OC4(CC(C=O)=CC(O)C4/C=C\2C)C3=O)CC1(C)[N+](=O)[O-] (stereo not given)	6.98
O=c1oc2c(O)c(O)cc3c(=O)oc4c(O)c(O)cc1c4c23 [ELLAGIC ACID]	-0.73
COc1cc([C@@H]2c3cc4c(cc3[C@@H](OC3OC5CO[C@@H](c6cccs6)OC5C(O)C3O)[C@H]3COC(=O)[C@H]23)OCO4)cc(OC)c1O (stereo not given in full)	-1.34
C[C@@H]1C(=O)C[C@H]2C(C)(C)CCC[C@]2(C)[C@@]1(O)CCc1ccoc1	0.26
CCCCCc1cc(O)cc2c1Oc1cc(O)cc(C(=O)CCCC)c1C(=O)O2	10.29
CC(=O)CCCCn1c(=O)c2c(ncn2C)n(C)c1=O [PENTOXIFYLLINE]	8.89
Cc1cc2nc3[nH]c(=O)[nH]c(=O)c3nc2cc1C [LUMICHROME]	11.55
CN1CCc2cc3c(cc2C(=O)Cc2ccc4c(c2C1)OCO4)OCO3.Cl [PROTOPINE HYDROCHLORIDE]	11.77
COC(=O)C1C(O)CCC2CN3CCc4c([nH]c5ccccc45)C3CC21 (stereo not given)	11.28
CC1=C2[C@H]3OC(=O)[C@@H](C)[C@@H]3CC[C@@]2(C)C=C/C1=N\O	14.43
COc1cc(C)c2c(c1C=O)Oc1c(c(C)c(O)c3c1C(O)OC3=O)OC2=O (stereo not given) [STICTIC ACID]	8.47
CC(C)=CC(=O)OC1C2C(C)C(=O)OC2C(O)C(C)C2C=CC(=O)C21C (stereo not given)	5.57
CC(=O)Oc1ccc2ccc(=O)oc2c1OC(C)=O	14.37
COc1c2c(cc3c1[C@@H]1Oc4c(ccc(O)c4CC=C(C)C)[C@@H]1CO3)OC(C)(C)C=C2	-1.22
COC(=O)[C@@H]1[C@H]2C[C@@H]3c4[nH]c5ccccc5c4CCN3C[C@@H]2CC[C@@H]1O	12.07

Of the compounds above, 3 contain an NH in an aromatic ring.
Compound	Inhibition [%]
Cc1cc2nc3[nH]c(=O)[nH]c(=O)c3nc2cc1C [LUMICHROME]	11.55
COC(=O)C1C(O)CCC2CN3CCc4c([nH]c5ccccc45)C3CC21 (stereo not given)	11.28
COC(=O)[C@@H]1[C@H]2C[C@@H]3c4[nH]c5ccccc5c4CCN3C[C@@H]2CC[C@@H]1O	12.07

Later entries:

Compound	Inhibition [%]
CC(C)c1ccc2c(c1)CC[C@H]1[C@](C)(C(=O)O)CCC[C@]21C [DEHYDROABIETIC ACID]	10.08
CC(C)CC1NC(=O)C(C(C)C)NC(=O)CC(C)COC(=O)C(CC(C)C)N(C)C(=O)C(C(C)C)NC(=O)C(C(C)C)OC1=O (stereo not given)	3.95
CC(=O)C1CCCC(=O)/C=C/C(=O)O1 (stereo not given)	3.65
COc1ccc2c(c1OC)C(=O)O[C@@H]2[C@H]1c2c(cc3c(c2OC)OCO3)CCN1C [NOSCAPINE]	4.16
COc1cc2c(c(OC)c1OC)-c1ccc(OC)c(=O)cc1[C@@H](NC(C)=O)CC2 [COLCHICINE]	8.5
COC(=O)C1C2CC3c4[nH]c5cc(OC)ccc5c4CCN3CC2CC(OC(=O)CCc2cc(OC)c(OC)c(OC)c2)C1OC (stereo not given)	8.3
C=C1C(=O)OC2CC(C)C3(O)CCC(=O)C3(C)CC12 (stereo not given)	11.6
CCC1OC(=O)C(C)C(OC2CC(C)(O)C(O)C(C)O2)C(C)C(O)C(C)(O)CC(C)C(=O)C(C)C(O)C1C (stereo not given)	8.55
COc1cc2c3c(c4ccc(OC)c(OC)c4c2cc1OC)CN1CCC[C@@H]1C3 [TYLOCREBRINE]	9.43
CC1(C)CC23C4COC(=O)C2CCC1C3CC4=O (stereo not given)	-4.04
CC(C)=CCc1c2c(c3occ(-c4ccc(O)c(O)c4)c(=O)c3c1O)C=CC(C)(C)O2 [POMIFERIN]	-2.68
CC[C@]1(O)C[C@H]2CN(CCc3c([nH]c4ccccc34)[C@@](C(=O)OC)(c3cc4c(cc3OC)N(C=O)[C@H]3[C@@](O)(C(=O)OC)[C@H](OC(C)=O)[C@]5(CC)C=CCN6CC[C@]43[C@@H]65)C2)C1.O=S(=O)(O)O [VINCRISTINE SULFATE]	1.62
C=C1C(=O)OC2CC3(C)CCCC(C)C3=CC12 (stereo not given)	7.79
C/C=C/c1cc2c(c(=O)o1)C(=O)[C@@H](O)[C@H](C)O2	9.46
COc1c(O)cc2oc3cc(O)c(CC=C(C)C)c(O)c3c(=O)c2c1CC=C(C)C [MANGOSTIN]	-1.39
COc1cc(/C=C/C(=O)CC(=O)/C=C/c2ccc(O)c(OC)c2)ccc1O [CURCUMIN]	15.02
C=C1C(=O)OC2CC1C(O)C/C(C)=C/CC/C(C)=C/C(O)CC2C (stereo not given)	11.12
COC1/C=C\C=C(/C)C(=O)NC2=CC(=O)C(N)=C(CC(C)CC(OC)C(O)C(C)/C=C(\C)C1OC(N)=O)C2=O (stereo not given)	0.44
CC1(C)C(=O)N2c3ccccc3C3(CC(N4C(=O)c5ccccc5C4=O)C(=O)O3)C2N1C(=O)OCc1ccccc1 (stereo not given)	4.43
CCCCCCCCCCCCCCCC(=O)O[C@@H]1[C@@H](C)[C@@]2(O)[C@@H](C=C(CO)C[C@]3(O)C(=O)C(C)=C[C@@H]23)[C@H]2[C@]1(OC(C)=O)[C@]2(C)CO	9.28
O=c1oc2cc(O)ccc2c2oc3cc(O)ccc3c12 [COUMESTROL]	5.32
C=C1C(=O)O[C@@H]2[C@H]3O[C@]3(C)CC/C=C(\C)CC[C@@H]12	8.5
O=C1c2cc(O)c(O)cc2O[C@H](c2ccc(O)c(O)c2)[C@H]1O	16.81
O=C(O)CCCCCCC[C@@H](O)[C@@H](O)CCCCCCO	11.37
COc1ccc2c(c1)O[C@H]1c3ccc(O)cc3OC[C@@H]21	7.57
